This is an account of results in article PMC6952816.

For at least one entry, the source does not settle the construct or the ends of the probe. For some assays here: A negative result means that nothing was seen under these conditions. Where a protein sequence is shown, tags need not be part of it.

The target of series [1] is T1, WRKY33 (Arabidopsis thaliana) (UniProt Q8S8P5).
T1 sequence (looked up, limits assumed): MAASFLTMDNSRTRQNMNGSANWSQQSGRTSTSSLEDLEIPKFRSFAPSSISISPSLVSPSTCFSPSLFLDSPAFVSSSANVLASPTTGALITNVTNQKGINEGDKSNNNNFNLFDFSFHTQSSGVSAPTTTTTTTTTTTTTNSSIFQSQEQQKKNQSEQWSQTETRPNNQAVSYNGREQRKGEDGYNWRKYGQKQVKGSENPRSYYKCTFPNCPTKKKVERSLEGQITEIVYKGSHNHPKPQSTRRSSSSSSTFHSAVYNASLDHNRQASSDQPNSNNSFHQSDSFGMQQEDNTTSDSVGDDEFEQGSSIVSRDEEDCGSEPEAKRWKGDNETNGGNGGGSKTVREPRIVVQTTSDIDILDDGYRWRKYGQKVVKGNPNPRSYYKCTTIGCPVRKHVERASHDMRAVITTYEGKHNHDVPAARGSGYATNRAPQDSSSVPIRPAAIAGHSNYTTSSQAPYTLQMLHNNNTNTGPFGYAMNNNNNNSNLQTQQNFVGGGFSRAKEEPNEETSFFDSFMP
In words: EMSA. Particulars: pH and temperature not given; recombinant protein; label: 5'-32P; probe letters rebuilt from the primers and the genome.

Series [2] addresses T2, WRKY53 (Arabidopsis thaliana) (UniProt Q9SUP6).
T2 sequence (looked up, limits assumed): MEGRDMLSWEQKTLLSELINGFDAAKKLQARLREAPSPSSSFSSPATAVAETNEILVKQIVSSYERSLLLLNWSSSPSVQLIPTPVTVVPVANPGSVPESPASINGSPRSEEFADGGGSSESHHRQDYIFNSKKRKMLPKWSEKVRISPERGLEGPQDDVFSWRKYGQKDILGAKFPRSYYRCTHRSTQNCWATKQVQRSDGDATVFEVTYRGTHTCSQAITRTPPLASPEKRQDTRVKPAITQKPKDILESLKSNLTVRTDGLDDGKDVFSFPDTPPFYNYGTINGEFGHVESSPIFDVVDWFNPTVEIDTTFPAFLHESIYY
The series can be described thus: EMSA. The settings on record: pH and temperature not given; recombinant protein; label: 5'-32P; probe letters rebuilt from the primers and the genome.

Take “GGTAACCCAAGTATTTTTCATAGATATTATACTTCTAGCGAAAAGCCATCAATTGAGAAAAAAGGCCTCCACGTTTGACCCGTTTTGCCTATAAAAGGATTCTTTAAGATATGGACCTTACTCATCTTCTCCGTTAAACCCATTTAAATAGTTTTCATTGTCCTTGTGA (double strand) [PRX33 promoter fragment]”: the binding result in series [1] is given as “no binding”; in series [2], “binds”.
